No constants are given. Whether binding was seen depends on the method and setting. For some assays here: Binding seen in cells or lysates may run through a third protein. Some entries that bind do so weakly or less than the wild type. For some assays here: Tags and fused reporters may be left off the sequences shown.
Key:
[1] = target: His4-CcmK4 (Synechocystis sp. PCC6803 CcmK4, N-ter His4 tag) (Synechocystis sp. PCC6803) (UniProt P73407); test: pull-down; purified doubly tagged His4/FLAG homo- or hetero-hexamer (2 uM) in 50 mM NaPi pH 8.0, 100 mM NaCl, 0.15 mg/mL BSA, overnight at room temperature without or with untagged K1 or K4 (6 uM); then bound to TALON resin, anti-FLAG western blot; both purified
[2] = target: T1, CcmK3-His4 (Synechocystis sp. PCC6803 CcmK3, C-ter His4 tag) (Synechocystis sp. PCC6803) (UniProt P73406); test: pull-down; four CcmK with His4, StrepTag, FLAG and HA tags co-expressed in E. coli BL21(DE3) (four-cassette plasmid, IPTG or auto-induction); TALON purification; Coomassie and western blots with streptactin-AP, anti-FLAG, anti-HA
T1 sequence: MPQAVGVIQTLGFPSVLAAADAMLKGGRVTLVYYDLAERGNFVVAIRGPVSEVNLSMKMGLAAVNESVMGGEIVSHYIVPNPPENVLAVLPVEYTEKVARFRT

Amino acid sequences for entries named in this document (tags omitted).
UniProt P73407: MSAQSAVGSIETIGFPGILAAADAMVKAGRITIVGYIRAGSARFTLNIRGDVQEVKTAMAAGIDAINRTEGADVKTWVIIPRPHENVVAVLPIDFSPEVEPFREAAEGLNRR

[3] = target: CcmK4-His4 (Synechocystis sp. PCC6803 CcmK4, C-ter His4 tag) (Synechocystis sp. PCC6803) (UniProt P73407); test: pull-down; couples of His4- and FLAG-tagged Syn6803 CcmK co-expressed in E. coli BL21(DE3) (two-cassette pET26b plasmid, IPTG); soluble fraction on cobalt TALON resin in 20 mM NaPi, 300 mM NaCl, 10 mM imidazole, pH 8.0, eluted with 300 mM imidazole; Coomassie SDS-PAGE and anti-FLAG western blot of purified fractions
[4] = target: His4-CcmK4 (Synechocystis sp. PCC6803 CcmK4, N-ter His4 tag) (Synechocystis sp. PCC6803) (UniProt P73407); test: as above

Row | binding [1] | binding [2] | binding [3] | binding [4] | Substance
1 | binds | binds | binds | binds | CcmK4-FLAG (Synechocystis sp. PCC6803 CcmK4, C-ter FLAG tag) (from UniProt P73407 1-112)
2 |  | binds |  |  | FLAG-CcmK4 (Synechocystis sp. PCC6803 CcmK4, N-ter FLAG tag) (from UniProt P73407 1-112)

From PMC6788708
